This passage reports binding results from patent US20030165995A1 (Takeda / Millennium, published 2003).

The chains behind the UniProt entries cited, without tags or fusion partners. Where a name states a change or a piece, a line headed by the entry shows the natural chain unless it says otherwise.
UniProt O00574: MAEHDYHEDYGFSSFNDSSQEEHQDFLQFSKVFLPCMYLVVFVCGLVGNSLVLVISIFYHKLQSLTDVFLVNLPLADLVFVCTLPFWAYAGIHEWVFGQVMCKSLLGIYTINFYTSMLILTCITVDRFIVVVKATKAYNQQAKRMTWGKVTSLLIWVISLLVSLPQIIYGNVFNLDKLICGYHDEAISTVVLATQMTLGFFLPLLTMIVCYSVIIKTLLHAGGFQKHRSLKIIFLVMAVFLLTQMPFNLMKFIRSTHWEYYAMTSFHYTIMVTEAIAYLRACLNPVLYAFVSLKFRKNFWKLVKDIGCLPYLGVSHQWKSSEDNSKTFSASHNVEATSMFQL

This assay concerns the target T1, human Bonzo with N-terminal hemagglutinin (HA) epitope, expressed on transfected L1.2 cells (Bonzo/L1.2 cells) (human) (UniProt O00574).
T1 sequence: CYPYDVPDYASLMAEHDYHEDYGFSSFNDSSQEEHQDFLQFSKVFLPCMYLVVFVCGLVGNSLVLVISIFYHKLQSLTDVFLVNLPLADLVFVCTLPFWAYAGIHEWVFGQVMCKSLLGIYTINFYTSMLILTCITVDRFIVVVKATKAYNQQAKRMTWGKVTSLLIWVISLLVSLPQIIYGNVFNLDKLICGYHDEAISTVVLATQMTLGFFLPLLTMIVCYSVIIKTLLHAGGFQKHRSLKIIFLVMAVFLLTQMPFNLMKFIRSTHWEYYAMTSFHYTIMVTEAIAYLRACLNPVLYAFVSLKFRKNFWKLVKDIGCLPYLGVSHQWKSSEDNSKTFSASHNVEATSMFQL
Put plainly: radioligand binding on Bonzo/L1.2 cells.

No constants are given. Whether binding was seen depends on the method and setting. Some entries that bind do so weakly or less than the wild type. Where a sequence is shown, tags or fusion partners need not be part of it.

B1: purified recombinant His-tagged SExCkine (entire predicted extracellular domain, amino acid residues 1 to 202 of SEQ ID NO:4) (ligand)
chain: NEGSVTGSCYCGKRISSDSPPSVQFMNRLRKHLRAYHRCLYYTRFQLLSWSVCGGNKDPWVQELMSCLDLKECGHAYSGIVAHQKHLLPTSPPISQASEGASSDIHTPAQMLLSTLQSTQRPTLPVGSLSSDKELTRPNETTIHTAGHSLAVGPEAGENQKQPEKNAGPTART
modifications: heavily glycosylated; iodinated with 125I where used as tracer
notes: Expressed in 293T cells, purified on wheat germ agglutinin and NiNTA; also called purified recombinant SExCkine (CXCL16); recombinant His-tagged SExCkine protein; not shown: C-terminal His tag from the pEF-His vector
In the case of B1, the binding result is reported as “binds”.
